Test results published in PMC6068138, “Identification of a 57S translation complex containing closed-loop factors and the 60S ribosome subunit” (Scientific Reports, 2018).
Substitutions are numbered along the chain they refer to. These are yes or no findings as the source states them, for the method shown. Binding seen in cells or lysates may run through a third protein. Some entries that bind do so weakly or less than the wild type. For some assays here: Where a sequence is shown, tags or fusion partners need not be part of it.

Protein sequences, listed by entry. Tags and fused reporters are not part of them.
UniProt Q12213: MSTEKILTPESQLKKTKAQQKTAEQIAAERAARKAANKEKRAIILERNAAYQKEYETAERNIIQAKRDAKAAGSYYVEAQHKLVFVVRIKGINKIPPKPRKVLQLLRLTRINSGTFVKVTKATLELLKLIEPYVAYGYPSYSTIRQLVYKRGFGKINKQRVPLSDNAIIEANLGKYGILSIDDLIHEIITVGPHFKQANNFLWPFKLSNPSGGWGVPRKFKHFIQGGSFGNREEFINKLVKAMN
UniProt P06103: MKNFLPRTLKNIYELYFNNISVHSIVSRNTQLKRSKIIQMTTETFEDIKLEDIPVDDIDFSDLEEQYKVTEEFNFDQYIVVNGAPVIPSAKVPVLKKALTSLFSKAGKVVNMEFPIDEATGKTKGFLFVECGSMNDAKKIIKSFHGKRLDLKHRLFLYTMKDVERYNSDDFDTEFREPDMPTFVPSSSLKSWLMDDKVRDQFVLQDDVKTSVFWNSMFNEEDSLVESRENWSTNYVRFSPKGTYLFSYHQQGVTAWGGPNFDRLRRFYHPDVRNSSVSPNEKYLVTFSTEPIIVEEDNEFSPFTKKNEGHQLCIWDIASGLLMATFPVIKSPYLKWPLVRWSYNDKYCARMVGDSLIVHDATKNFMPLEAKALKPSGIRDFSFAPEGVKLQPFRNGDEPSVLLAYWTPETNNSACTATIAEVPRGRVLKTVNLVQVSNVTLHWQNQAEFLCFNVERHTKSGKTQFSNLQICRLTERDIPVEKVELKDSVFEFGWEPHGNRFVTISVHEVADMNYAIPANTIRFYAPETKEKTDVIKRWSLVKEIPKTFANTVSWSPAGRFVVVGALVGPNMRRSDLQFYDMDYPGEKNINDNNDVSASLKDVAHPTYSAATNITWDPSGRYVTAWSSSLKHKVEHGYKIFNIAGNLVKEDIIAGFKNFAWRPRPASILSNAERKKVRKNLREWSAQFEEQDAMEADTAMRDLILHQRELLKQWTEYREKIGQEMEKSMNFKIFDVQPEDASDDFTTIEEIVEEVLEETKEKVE
UniProt P0CX53: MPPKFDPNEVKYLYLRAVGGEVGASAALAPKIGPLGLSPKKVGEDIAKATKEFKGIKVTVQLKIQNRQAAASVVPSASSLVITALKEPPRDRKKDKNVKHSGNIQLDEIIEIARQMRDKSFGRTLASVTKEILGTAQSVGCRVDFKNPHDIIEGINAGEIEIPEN

B1: RPS4B-GFP (protein, UniProt P0CX36 1-261)
chain: MARGPKKHLKRLAAPHHWLLDKLSGCYAPRPSAGPHKLRESLPLIVFLRNRLKYALNGREVKAILMQRHVKVDGKVRTDTTYPAGFMDVITLDATNENFRLVYDVKGRFAVHRITDEEASYKLGKVKKVQLGKKGVPYVVTHDGRTIRYPDPNIKVNDTVKIDLASGKITDFIKFDAGKLVYVTGGRNLGRIGTIVHKERHDGGFDLVHIKDSLDNTFVTRLNNVFVIGEQGKPYISLPKGKGIKLSIAEERDRRRAQQGL
B2: eIF4G2-GFP (natural protein, Saccharomyces cerevisiae, UniProt P39936 1-914, looked up)
chain: MTDQRGPPPPHPQQANGYKKFPPHDNQYSGANNSQPNNHYNENLYSAREPHNNKQYQSKNGKYGTNKYNNRNNSQGNAQYYNNRFNNGYRLNNNDYNPAMLPGMQWPANYYAPQMYYIPQQMVPVASPPYTHQPLNTNPEPPSTPKTTKIEITTKTGERLNLKKFHEEKKASKGEEKNDGVEQKSKSGTPFEKEATPVLPANEAVKDTLTETSNEKSTSEAENTKRLFLEQVRLRKAAMERKKNGLISETEKKQETSNHDNTDTTKPNSVIESEPIKEAPKPTGEANEVVIDGKSGASVKTPQHVTGSVTKSVTFNEPENESSSQDVDELVKDDDTTEISDTTGGKTVNKSDDETINSVITTEENTVKETEPSTSDIEMPTVSQLLETLGKAQPISDIYEFAYPENVERPDIKYKKPSVKYTYGPTFLLQFKDKLKFRPDPAWVEAVSSKIVIPPHIARNKPKDSGRFGGDFRSPSMRGMDHTSSSRVSSKRRSKRMGDDRRSNRGYTSRKDREKAAEKAEEQAPKEEIAPLVPSANRWIPKSRVKKTEKKLAPDGKTELFDKEEVERKMKSLLNKLTLEMFDSISSEILDIANQSKWEDDGETLKIVIEQIFHKACDEPHWSSMYAQLCGKVVKDLDPNIKDKENEGKNGPKLVLHYLVARCHEEFEKGWADKLPAGEDGNPLEPEMMSDEYYIAAAAKRRGLGLVRFIGYLYCLNLLTGKMMFECFRRLMKDLNNDPSEETLESVIELLNTVGEQFEHDKFVTPQATLEGSVLLDNLFMLLQHIIDGGTISNRIKFKLIDVKELREIKHWNSAKKDAGPKTIQQIHQEEEQLRQKKNSQRSNSRFNNHNQSNSNRYSSNRRNMQNTQRDSFASTKTGSFRNNQRNARKVEEVSQAPRANMFDALMNNDGDSD
notes: eIF4G2, Saccharomyces cerevisiae; also called TIF4632-GFP; source: S. cerevisiae strain RP2384 (TIF4632-GFP::G418), in cell extract
B3: RPL6B-GFP (natural protein, Saccharomyces cerevisiae, UniProt P05739 1-176, looked up)
chain: MTAQQAPKWYPSEDVAAPKKTRKAVRPQKLRASLVPGTVLILLAGRFRGKRVVYLKHLEDNTLLVTGPFKVNGVPLRRVNARYVIATSTKVSVEGVNVEKFNVEYFAKEKLTKKEKKEANLFPEQQTKEIKTERVEDQKVVDKALLAEIKKTPLLKQYLSASFSLKNGDKPHLLKF
notes: large ribosomal subunit protein RPL6B, Saccharomyces cerevisiae; part of the 60S ribosomal subunit in the extract; source: S. cerevisiae strain carrying the GFP fusion, in cell extract
B4: eIF4G1, GFP tagged (natural protein, Saccharomyces cerevisiae, UniProt P39935 1-952, looked up)
chain: MTDETAHPTQSASKQESAALKQTGDDQQESQQQRGYTNYNNGSNYTQKKPYNSNRPHQQRGGKFGPNRYNNRGNYNGGGSFRGGHMGANSSNVPWTGYYNNYPVYYQPQQMAAAGSAPANPIPVEEKSPVPTKIEITTKSGEHLDLKEQHKAKLQSQERSTVSPQPESKLKETSDSTSTSTPTPTPSTNDSKASSEENISEAEKTRRNFIEQVKLRKAALEKKRKEQLEGSSGNNNIPMKTTPENVEEKGSDKPEVTEKTKPAEEKSAEPEVKQETPAEEGEQGEKGQIKEESTPKVLTFAERLKLKKQQKEREEKTEGKENKEVPVQEETKSAIESAPVPPSEQVKEETEVAETEQSNIDESATTPAIPTKSDEAEAEVEAEAGDAGTKIGLEAEIETTTDETDDGTNTVSHILNVLKDATPIEDVFSFNYPEGIEGPDIKYKKEHVKYTYGPTFLLQFKDKLNVKADAEWVQSTASKIVIPPGMGRGNRSRDSGRFGNNSSRGHDFRNTSVRNMDDRANSRTSSKRRSKRMNDDRRSNRSYTSRRDRERGSYRNEEKREDDKPKEEVAPLVPSANRWVPKFKSKKTEKKLAPDGKTELLDKDEVERKMKSLLNKLTLEMFDAISSEILAIANISVWETNGETLKAVIEQIFLKACDEPHWSSMYAQLCGKVVKELNPDITDETNEGKTGPKLVLHYLVARCHAEFDKGWTDKLPTNEDGTPLEPEMMSEEYYAAASAKRRGLGLVRFIGFLYRLNLLTGKMMFECFRRLMKDLTDSPSEETLESVVELLNTVGEQFETDSFRTGQATLEGSQLLDSLFGILDNIIQTAKISSRIKFKLIDIKELRHDKNWNSDKKDNGPKTIQQIHEEEERQRQLKNNSRSNSRRTNNSSNRHSFRRDAPPASKDSFITTRTYSQRNSQRAPPPKEEPAAPTSTATNMFSALMGESDDEE
notes: eIF4G1, Saccharomyces cerevisiae; source: S. cerevisiae strain carrying the GFP fusion, in cell extract
B5: PAB1, GFP tagged (natural protein, Saccharomyces cerevisiae, UniProt P04147 1-577, looked up)
chain: MADITDKTAEQLENLNIQDDQKQAATGSESQSVENSSASLYVGDLEPSVSEAHLYDIFSPIGSVSSIRVCRDAITKTSLGYAYVNFNDHEAGRKAIEQLNYTPIKGRLCRIMWSQRDPSLRKKGSGNIFIKNLHPDIDNKALYDTFSVFGDILSSKIATDENGKSKGFGFVHFEEEGAAKEAIDALNGMLLNGQEIYVAPHLSRKERDSQLEETKAHYTNLYVKNINSETTDEQFQELFAKFGPIVSASLEKDADGKLKGFGFVNYEKHEDAVKAVEALNDSELNGEKLYVGRAQKKNERMHVLKKQYEAYRLEKMAKYQGVNLFVKNLDDSVDDEKLEEEFAPYGTITSAKVMRTENGKSKGFGFVCFSTPEEATKAITEKNQQIVAGKPLYVAIAQRKDVRRSQLAQQIQARNQMRYQQATAAAAAAAAGMPGQFMPPMFYGVMPPRGVPFNGPNPQQMNPMGGMPKNGMPPQFRNGPVYGVPPQGGFPRNANDNNQFYQQKQRQALGEQLYKKVSAKTSNEEAAGKITGMILDLPPQEVFPLLESDELFEQHYKEASAAYESFKKEQEQQTEQA
notes: source: S. cerevisiae strain carrying the GFP fusion, in cell extract
B6: RPS4A, GFP tagged (protein, UniProt P0CX35 1-261)
chain: B1 chain
B7: RPS30B, GFP tagged (protein, UniProt P0CX34 1-63)
chain: MAKVHGSLARAGKVKSQTPKVEKTEKPKKPKGRAYKRLLYTRRFVNVTLVNGKRRMNPGPSVQ
B8: RPL7A, GFP tagged (protein, UniProt P05737 1-244)
chain: MAAEKILTPESQLKKSKAQQKTAEQVAAERAARKAANKEKRAIILERNAAYQKEYETAERNIIQAKRDAKAAGSYYVEAQHKLVFVVRIKGINKIPPKPRKVLQLLRLTRINSGTFVKVTKATLELLKLIEPYVAYGYPSYSTIRQLVYKRGFGKINKQRVPLSDNAIIEANLGKYGILSIDDLIHEIITVGPHFKQANNFLWPFKLSNPSGGWGVPRKFKHFIQGGSFGNREEFINKLVKSMN
B9: RPL7B, GFP tagged (protein, UniProt Q12213 1-244)
chain: B8 chain with A2S, A3T, S16T, V26I, S242A
B10: RPL14B, GFP tagged (protein, UniProt P38754 1-138)
chain: MSTDSIVKASNWRLVEVGRVVLIKKGQSAGKLAAIVEIIDQKKVLIDGPKAGVPRQAINLGQVVLTPLTFALPRGARTATVSKKWAAAGVCEKWAASSWAKKIAQRERRAALTDFERFQVMVLRKQKRYTVKKALAKA
B11: eIF4E, GFP tagged (natural protein, Saccharomyces cerevisiae, UniProt P07260 1-213, looked up)
chain: MSVEEVSKKFEENVSVDDTTATPKTVLSDSAHFDVKHPLNTKWTLWYTKPAVDKSESWSDLLRPVTSFQTVEEFWAIIQNIPEPHELPLKSDYHVFRNDVRPEWEDEANAKGGKWSFQLRGKGADIDELWLRTLLAVIGETIDEDDSQINGVVLSIRKGGNKFALWTKSEDKEPLLRIGGKFKQVLKLTDDGHLEFFPHSSANGRHPQPSITL
notes: as for B5

These molecules were tested against T1, Flag-PAB1 (poly(A)-binding protein) (Saccharomyces cerevisiae, UniProt P04147 1-577) (assay: co-IP + AUC; Flag-PAB1 pull down in the presence of formaldehyde (cross-linking before cell lysis), then AU-FDS).
T1 construct: bait of the one-step Flag pull down; also called PAB1-Flag; source: S. cerevisiae, expressed from plasmid YC776 (Flag-PAB1 URA3), in cell extract
T1 sequence (looked up): B5 chain

| Molecule | binding |
| --- | --- |
| eIF3b (from UniProt P06103 1-763) (other; other documents disagree on this pair) | binds |

What follows are molecules tested against T2, eIF4E-Flag (mRNA cap binding protein) (Saccharomyces cerevisiae, UniProt P07260 1-213) (assay: co-IP + AUC; one-step Flag pull down of eIF4E-Flag from yeast cell extracts (cycloheximide added before lysis); Flag eluate analysed by AU-FDS for the GFP tagged protein, 20 °C, 15,000 rpm; cells on glucose or glucose depleted 10 min).
T2 construct: bait of the one-step Flag pull down; also called eIF4-Flag; source: S. cerevisiae, expressed from plasmid YC801 (eIF4E-Flag URA3), in cell extract
T2 sequence (looked up): B11 chain

| Molecule | binding |
| --- | --- |
| B1 | binds |
| B2 | binds |
| B3 | binds |
| B4 | binds |
| B5 | binds |

Each molecule was assayed against T1, Flag-PAB1 (poly(A)-binding protein) (assay: co-IP + AUC; one-step Flag pull down of Flag-PAB1 from yeast cell extracts (cycloheximide added before lysis); Flag eluate analysed by AU-FDS for the GFP tagged protein, 20 °C, 15,000 rpm; cells on glucose, glucose depleted 10 min, glucose added back 1 min, or 30 °C to 46 °C 1 min).

| Molecule | binding |
| --- | --- |
| RPL12A, GFP tagged (from UniProt P0CX53 1-165) | binds |
| eIF3b (from UniProt P06103 1-763) | no binding (condition: without formaldehyde cross-linking) |
| B1 | binds |
| B2 | binds |
| B3 | binds |
| B6 | binds |
| B7 | binds |
| B8 | binds |
| B9 | binds |
| B10 | binds |
| B11 | binds |
